From paper PMC11642328
No constants are given. Whether binding was seen depends on the method and setting. Binding seen in cells or lysates may run through a third protein. Some binding calls cover weakened binding; strength is not graded here.

By UniProt entry, the sequences of proteins in these tests, tags left out.
UniProt Q92547: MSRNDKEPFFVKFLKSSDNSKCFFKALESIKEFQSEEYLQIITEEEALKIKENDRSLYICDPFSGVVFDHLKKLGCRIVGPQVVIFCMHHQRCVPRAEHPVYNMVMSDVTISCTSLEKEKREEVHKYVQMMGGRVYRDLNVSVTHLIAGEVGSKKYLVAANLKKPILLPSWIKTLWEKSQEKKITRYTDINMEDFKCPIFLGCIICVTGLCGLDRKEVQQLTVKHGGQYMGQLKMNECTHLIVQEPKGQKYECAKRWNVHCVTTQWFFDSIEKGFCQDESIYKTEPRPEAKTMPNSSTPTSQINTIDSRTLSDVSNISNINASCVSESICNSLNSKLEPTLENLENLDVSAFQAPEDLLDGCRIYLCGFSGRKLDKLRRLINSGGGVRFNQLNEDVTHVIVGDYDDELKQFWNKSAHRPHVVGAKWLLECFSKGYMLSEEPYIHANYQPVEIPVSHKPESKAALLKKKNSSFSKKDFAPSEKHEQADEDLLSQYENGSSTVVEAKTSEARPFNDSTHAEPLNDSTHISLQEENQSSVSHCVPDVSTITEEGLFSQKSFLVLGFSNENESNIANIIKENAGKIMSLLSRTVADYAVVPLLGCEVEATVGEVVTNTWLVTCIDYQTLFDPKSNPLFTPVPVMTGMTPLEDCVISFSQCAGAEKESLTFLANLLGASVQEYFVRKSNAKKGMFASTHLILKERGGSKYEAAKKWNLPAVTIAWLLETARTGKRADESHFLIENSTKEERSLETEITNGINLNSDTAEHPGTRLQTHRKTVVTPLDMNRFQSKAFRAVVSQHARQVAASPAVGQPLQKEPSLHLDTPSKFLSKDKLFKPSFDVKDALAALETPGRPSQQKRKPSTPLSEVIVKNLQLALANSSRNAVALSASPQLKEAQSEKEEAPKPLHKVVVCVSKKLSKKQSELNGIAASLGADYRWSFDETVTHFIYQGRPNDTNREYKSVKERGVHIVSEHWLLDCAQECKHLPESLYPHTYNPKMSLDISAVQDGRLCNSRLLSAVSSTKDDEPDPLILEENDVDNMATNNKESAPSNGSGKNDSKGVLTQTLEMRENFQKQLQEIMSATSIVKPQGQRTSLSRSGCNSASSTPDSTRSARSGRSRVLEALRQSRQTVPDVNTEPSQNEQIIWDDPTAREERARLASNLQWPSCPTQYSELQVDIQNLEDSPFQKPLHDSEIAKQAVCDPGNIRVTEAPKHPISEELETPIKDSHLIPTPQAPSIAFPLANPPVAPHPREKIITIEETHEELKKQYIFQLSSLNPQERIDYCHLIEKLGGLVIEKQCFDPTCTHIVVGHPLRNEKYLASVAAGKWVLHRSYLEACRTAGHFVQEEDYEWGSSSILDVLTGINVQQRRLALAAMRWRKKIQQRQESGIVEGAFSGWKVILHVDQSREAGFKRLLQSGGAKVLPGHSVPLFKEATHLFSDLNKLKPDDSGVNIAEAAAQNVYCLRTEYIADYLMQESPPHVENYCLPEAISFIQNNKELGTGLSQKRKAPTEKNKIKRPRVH
UniProt Q14676: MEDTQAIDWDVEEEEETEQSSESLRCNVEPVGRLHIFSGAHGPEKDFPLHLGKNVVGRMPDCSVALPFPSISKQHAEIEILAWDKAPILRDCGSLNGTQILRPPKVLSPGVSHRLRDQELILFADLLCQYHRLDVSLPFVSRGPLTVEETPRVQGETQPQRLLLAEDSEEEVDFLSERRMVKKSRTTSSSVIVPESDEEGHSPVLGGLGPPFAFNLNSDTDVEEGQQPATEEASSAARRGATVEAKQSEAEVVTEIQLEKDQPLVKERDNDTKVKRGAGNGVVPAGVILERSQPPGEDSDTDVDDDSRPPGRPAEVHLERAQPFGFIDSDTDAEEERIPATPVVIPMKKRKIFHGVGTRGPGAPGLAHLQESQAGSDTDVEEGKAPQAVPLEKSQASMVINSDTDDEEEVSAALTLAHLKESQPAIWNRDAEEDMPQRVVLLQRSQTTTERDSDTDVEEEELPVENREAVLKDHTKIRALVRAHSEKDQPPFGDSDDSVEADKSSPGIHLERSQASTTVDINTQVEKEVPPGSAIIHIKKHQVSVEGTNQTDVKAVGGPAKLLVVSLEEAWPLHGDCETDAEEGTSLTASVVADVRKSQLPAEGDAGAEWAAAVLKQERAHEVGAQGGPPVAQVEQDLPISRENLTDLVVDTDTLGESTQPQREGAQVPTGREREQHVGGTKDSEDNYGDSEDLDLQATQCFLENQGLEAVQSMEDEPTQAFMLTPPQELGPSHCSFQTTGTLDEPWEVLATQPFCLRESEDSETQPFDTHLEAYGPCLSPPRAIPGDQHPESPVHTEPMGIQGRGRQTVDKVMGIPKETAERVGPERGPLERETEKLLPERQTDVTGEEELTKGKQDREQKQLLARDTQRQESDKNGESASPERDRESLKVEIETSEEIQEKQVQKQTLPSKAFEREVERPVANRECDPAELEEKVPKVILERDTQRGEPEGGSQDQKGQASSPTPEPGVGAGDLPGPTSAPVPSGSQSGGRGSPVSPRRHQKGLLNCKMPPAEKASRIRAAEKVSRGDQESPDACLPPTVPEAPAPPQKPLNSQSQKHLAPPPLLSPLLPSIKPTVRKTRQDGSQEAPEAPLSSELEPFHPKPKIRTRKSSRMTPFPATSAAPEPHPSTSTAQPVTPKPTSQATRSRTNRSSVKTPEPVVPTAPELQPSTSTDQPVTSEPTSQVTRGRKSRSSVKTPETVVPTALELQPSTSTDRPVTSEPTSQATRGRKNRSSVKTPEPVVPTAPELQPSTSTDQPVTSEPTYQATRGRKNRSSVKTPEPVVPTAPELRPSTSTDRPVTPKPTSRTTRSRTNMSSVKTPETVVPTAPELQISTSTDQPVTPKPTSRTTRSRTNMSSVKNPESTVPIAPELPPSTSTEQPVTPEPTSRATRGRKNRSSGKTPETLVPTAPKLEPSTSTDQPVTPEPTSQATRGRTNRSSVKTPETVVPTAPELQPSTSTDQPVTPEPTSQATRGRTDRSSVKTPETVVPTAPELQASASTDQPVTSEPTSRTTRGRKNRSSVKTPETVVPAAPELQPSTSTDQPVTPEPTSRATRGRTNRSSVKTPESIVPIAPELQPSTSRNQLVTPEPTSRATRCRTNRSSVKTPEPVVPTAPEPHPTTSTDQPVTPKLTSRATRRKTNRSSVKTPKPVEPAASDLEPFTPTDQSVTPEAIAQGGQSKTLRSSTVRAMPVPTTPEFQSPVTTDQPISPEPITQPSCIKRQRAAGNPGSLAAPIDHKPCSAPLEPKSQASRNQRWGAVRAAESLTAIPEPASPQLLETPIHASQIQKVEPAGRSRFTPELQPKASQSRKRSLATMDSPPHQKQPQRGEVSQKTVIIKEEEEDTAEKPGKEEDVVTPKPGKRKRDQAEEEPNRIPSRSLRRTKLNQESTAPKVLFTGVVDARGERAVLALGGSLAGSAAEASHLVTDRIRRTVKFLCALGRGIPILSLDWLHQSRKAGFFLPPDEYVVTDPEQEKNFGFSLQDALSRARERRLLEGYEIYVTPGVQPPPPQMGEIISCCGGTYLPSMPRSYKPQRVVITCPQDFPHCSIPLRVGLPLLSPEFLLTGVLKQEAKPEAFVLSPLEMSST
UniProt Q16531: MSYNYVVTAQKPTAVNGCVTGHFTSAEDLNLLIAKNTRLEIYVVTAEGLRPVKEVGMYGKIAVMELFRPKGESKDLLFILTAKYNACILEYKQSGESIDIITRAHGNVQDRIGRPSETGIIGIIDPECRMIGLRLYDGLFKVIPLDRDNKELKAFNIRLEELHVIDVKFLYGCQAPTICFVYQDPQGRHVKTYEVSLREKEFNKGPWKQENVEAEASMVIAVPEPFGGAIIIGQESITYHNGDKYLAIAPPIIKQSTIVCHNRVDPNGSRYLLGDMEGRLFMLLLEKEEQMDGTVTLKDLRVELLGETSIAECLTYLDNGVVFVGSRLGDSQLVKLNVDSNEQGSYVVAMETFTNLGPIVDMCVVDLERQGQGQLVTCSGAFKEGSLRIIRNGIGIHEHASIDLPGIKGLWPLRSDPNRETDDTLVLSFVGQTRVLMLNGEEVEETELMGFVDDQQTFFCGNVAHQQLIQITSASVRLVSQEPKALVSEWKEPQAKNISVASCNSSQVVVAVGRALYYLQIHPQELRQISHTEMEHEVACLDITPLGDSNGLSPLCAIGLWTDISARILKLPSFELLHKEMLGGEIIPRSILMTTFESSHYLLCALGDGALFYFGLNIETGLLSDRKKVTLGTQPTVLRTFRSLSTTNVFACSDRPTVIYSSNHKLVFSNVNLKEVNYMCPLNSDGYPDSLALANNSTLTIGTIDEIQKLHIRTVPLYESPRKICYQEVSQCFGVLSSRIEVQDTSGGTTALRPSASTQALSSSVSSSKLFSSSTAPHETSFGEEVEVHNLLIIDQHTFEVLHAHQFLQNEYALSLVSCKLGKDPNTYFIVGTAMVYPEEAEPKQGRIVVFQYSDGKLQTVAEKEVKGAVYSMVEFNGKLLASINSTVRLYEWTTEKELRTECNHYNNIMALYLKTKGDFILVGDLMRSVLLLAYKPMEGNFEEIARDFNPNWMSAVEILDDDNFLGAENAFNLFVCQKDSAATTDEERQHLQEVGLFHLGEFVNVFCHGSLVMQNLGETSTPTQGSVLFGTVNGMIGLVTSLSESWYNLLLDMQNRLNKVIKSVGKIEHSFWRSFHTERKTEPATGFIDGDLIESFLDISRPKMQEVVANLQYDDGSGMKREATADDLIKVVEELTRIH
UniProt O60934: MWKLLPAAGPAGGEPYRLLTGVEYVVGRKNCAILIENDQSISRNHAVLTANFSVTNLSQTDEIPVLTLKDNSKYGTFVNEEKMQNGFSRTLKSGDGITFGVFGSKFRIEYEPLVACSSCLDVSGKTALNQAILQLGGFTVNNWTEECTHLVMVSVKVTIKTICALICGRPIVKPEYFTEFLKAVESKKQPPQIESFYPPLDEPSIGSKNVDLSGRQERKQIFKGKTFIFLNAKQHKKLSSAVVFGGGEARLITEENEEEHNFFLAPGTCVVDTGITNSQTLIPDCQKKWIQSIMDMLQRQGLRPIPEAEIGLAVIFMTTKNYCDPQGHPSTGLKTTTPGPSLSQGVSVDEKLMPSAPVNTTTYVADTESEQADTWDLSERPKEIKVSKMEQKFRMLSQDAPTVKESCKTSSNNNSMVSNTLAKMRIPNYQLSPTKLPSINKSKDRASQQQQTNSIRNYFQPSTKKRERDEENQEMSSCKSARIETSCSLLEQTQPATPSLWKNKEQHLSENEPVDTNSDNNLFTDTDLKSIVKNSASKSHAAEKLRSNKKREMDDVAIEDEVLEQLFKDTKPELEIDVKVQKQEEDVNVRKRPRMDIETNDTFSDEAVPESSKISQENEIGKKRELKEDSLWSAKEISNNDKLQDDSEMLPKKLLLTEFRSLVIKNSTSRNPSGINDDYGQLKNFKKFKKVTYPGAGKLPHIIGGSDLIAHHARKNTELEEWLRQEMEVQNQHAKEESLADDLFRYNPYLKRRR

What was measured:
[1] = target: FLAG-tagged human TopBP1 (human) (UniProt Q92547); assay: co-IP; HEK 293T whole cell lysates (transfected or untransfected; mock, IR 10 Gy or UV), lysis buffer 50 mM Tris, 150 mM NaCl, 1 mM EDTA, 0.5% NP-40, 1% Triton X-100; 2 μg antibody on Dynabeads protein G, 3 h, 4 °C; immunoblot
[2] = target: HA-tagged human MDC1 (human) (UniProt Q14676); assay: as above

Substance | binding [1] | binding [2]
HA-tagged human DDB1 (from UniProt Q16531 1-1140) | binds | –
DDB1, endogenous in HEK 293T cells (from UniProt Q16531 1-1140) | – | binds
NBS1, endogenous in HEK 293T cells (from UniProt O60934 1-754) | – | binds
